No constants are given. Whether binding was seen depends on the method and setting. Binding seen in cells or lysates may run through a third protein. Some binding calls cover weakened binding; strength is not graded here. Blank lines part the entries; values can stand above or below the substance they belong to.
Assays:
[1] = target: YBX1, endogenous (human (endogenous in Huh7 and HepG2)) (UniProt P67809); assay: co-IP; endogenous proteins in Huh7 cells, with or without RNase (10 µg/mL, 37°C, 10 min), IgG as a control, western blot
3FLAG-RNF115 = 3FLAG-RNF115 (UniProt Q9Y4L5); assay: co-IP; exogenous (transfected, tagged) proteins; antibody cross-linked to protein A/G, lysate incubated overnight at 4°C, western blot; bait and cell line not stated
[2] = target: Ring Finger Protein 115 (RNF115), endogenous (human (endogenous in the paper's human cell lines; line not stated for this panel)) (UniProt Q9Y4L5); assay: co-IP; endogenous proteins; 10 µg antibody cross-linked to protein A/G, 1000 µg total protein in IP lysis buffer, overnight at 4°C, western blot; bait and cell line not stated

Chains of the proteins cited; added tags and fusions are not shown.
UniProt P67809: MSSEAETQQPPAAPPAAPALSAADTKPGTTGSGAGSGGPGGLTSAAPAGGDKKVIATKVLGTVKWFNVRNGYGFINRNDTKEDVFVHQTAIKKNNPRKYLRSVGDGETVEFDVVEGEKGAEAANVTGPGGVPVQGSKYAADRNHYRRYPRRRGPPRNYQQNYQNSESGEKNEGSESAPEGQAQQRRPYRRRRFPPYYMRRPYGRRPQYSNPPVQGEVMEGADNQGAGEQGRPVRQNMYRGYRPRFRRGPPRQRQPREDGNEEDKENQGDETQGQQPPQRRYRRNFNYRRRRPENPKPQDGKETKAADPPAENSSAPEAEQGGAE
UniProt Q9Y4L5: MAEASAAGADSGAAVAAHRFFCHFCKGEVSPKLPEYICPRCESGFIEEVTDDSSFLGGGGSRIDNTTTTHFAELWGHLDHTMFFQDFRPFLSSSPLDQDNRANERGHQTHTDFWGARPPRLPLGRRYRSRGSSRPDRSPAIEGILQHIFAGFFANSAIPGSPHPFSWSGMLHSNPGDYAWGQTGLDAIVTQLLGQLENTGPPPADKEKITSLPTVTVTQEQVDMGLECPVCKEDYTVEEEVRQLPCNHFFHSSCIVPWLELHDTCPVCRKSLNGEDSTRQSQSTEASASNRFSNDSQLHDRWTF
UniProt P60842: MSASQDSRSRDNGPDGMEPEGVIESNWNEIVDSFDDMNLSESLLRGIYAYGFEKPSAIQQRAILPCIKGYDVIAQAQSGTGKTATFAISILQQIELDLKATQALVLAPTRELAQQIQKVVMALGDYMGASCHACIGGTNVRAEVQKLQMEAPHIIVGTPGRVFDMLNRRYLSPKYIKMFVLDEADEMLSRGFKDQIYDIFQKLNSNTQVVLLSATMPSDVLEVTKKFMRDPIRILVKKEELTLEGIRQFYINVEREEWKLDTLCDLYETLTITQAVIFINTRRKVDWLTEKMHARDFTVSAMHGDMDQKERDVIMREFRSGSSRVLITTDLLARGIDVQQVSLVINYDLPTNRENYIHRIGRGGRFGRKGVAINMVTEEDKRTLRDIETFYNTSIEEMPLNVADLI
UniProt Q02127: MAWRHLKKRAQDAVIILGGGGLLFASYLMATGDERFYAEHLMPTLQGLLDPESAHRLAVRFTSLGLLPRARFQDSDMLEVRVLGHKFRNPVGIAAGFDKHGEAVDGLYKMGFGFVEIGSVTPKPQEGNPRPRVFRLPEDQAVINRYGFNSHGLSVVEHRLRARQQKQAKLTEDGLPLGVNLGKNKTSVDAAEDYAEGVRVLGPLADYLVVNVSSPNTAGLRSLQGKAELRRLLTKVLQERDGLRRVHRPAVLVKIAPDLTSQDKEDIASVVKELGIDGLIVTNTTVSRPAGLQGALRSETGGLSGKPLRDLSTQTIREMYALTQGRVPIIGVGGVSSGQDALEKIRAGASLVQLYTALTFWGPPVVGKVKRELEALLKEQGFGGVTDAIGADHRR

- binding [1]: binds
Substance: Eukaryotic Translation Initiation Factor 4A1 (EIF4A1), endogenous (from UniProt P60842 1-406)

- binding (3FLAG-RNF115): binds
Substance: His-DHODH (from UniProt Q02127 1-395)

- binding [2]: binds
Substance: dihydroorotate dehydrogenase (DHODH), endogenous (from UniProt Q02127 1-395)

Source: paper PMC11910144
